# Assay results: the supplement of paper PMC8728848
# Some of the results follow.
# B1: GS13971A-bth-447-22-447 (Bacteroides thetaiotaomicron) (protein)
# chain: EDVDNERSKGMFSASQSGFSTIEVYDLGPLNKIDLSIAKAGLEDTGGTVTFSVEQSLLDSLNNADGTSYQLLPPECYTIENATYSVSPGGDRRVTGGSLVYDPHKIYNLCGFDELKYVLPLRVSSTGTPMNSDRTATLYGFIVKEAIVRLASTGGDFVVEGGTTTSPMNLDTEISFENEWDLTTSFATKGADYVDNYNSANSTYYIPLPSDFYTLPDVTIAKGKTTGGSAISLLGETLPPGNYLLPVSLGGLSGQGDASINIDKETVANYFVIKQGGPINRDHWTVTANTEEKTGEVSAAYPHNGQTISLIDGEINTFWHSKWQGGEVAPPYEIILDMGKENSVSQLGLIARQNALTSMNLEIYAGDDGETWNLIGKYFFDGSIKTEQMVPVKACDARWIRIYIPTLGSGSSVGHLAEIYVYGTDK
# Experiments:
# Assay in all cases: glycan array binding signal (z-score within array); higher = stronger binding
# Settings in all cases: glycan notation: IUPAC condensed, linker removed
# Neu5Ac(a2-8)Neu5Ac = molecular target: Neu5Ac(a2-8)Neu5Ac
# In short: (§1)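 The binding signal is a Z-score computed within each array and averaged over linkers. Arrays of the same protein sequence at different concentrations or buffers were also averaged together. Data originate from 3228 arrays in the Consortium for Functional Glycomics database, kept only where the protein sequence was available.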
# [1] = molecular target: Neu5Ac(a2-8)Neu5Ac(a2-3)Gal(b1-3)GalNAc(b1-4)[Neu5Ac(a2-3)]Gal(b1-4)Glc
# In short: as §1
# [2] = molecular target: Neu5Ac(a2-8)Neu5Ac(a2-3)Gal(b1-3)GalNAc(b1-4)[Neu5Ac(a2-8)Neu5Ac(a2-3)]Gal(b1-4)Glc
# In short: as §1
# [3] = molecular target: Neu5Ac(a2-8)Neu5Ac(a2-3)Gal(b1-4)Glc
# In short: as §1
# [4] = molecular target: Neu5Ac(a2-8)Neu5Ac(a2-3)Gal(b1-4)GlcNAc
# In short: as §1
# [5] = molecular target: Neu5Ac(a2-8)Neu5Ac(a2-3)[Gal(b1-3)GalNAc(b1-4)]Gal(b1-4)Glc
# In short: as §1
# [6] = molecular target: Neu5Ac(a2-8)Neu5Ac(a2-3)[GalNAc(b1-4)]Gal(b1-4)Glc
# In short: as §1
# [7] = molecular target: Neu5Ac(a2-8)Neu5Ac(a2-8)Neu5Ac
# In short: as §1
# [8] = molecular target: Neu5Ac(a2-8)Neu5Ac(a2-8)Neu5Ac(a2-3)Gal(b1-4)Glc
# In short: as §1
# [9] = molecular target: Neu5Ac(a2-8)Neu5Ac(a2-8)Neu5Ac(a2-3)[Gal(b1-3)GalNAc(b1-4)]Gal(b1-4)Glc
# In short: as §1
# [10] = molecular target: Neu5Ac(a2-8)Neu5Ac(a2-8)Neu5Ac(a2-3)[GalNAc(b1-4)]Gal(b1-4)Glc
# In short: as §1
# [11] = molecular target: Neu5Ac(a2-8)Neu5Ac(a2-8)Neu5Ac(a2-8)Neu5Ac(a2-3)[GalNAc(b1-4)]Gal(b1-4)Glc
# In short: as §1
# [12] = molecular target: Neu5Ac(a2-8)Neu5Gc(a2-3)Gal(b1-4)GlcNAc
# In short: as §1
# [13] = molecular target: Neu5Ac(b2-6)Gal(b1-4)GlcNAc
# In short: as §1
# Neu5Ac(b2-6)GalNAc = molecular target: Neu5Ac(b2-6)GalNAc
# In short: as §1
# [14] = molecular target: Neu5Ac9Ac(a2-3)Gal(b1-3)GlcNAc
# In short: as §1
# [15] = molecular target: Neu5Ac9Ac(a2-3)Gal(b1-4)GlcNAc
# In short: as §1
# [16] = molecular target: Neu5Ac9Ac(a2-6)Gal(b1-4)GlcNAc
# In short: as §1
# [17] = molecular target: Neu5Gc(a2-3)Gal(b1-3)GlcNAc
# In short: as §1
# [18] = molecular target: Neu5Gc(a2-3)Gal(b1-3)[Fuc(a1-4)]GlcNAc
# In short: as §1
# Neu5Gc(a2-3)Gal(b1-4)Glc = molecular target: Neu5Gc(a2-3)Gal(b1-4)Glc
# In short: as §1
# [19] = molecular target: Neu5Gc(a2-3)Gal(b1-4)GlcNAc
# In short: as §1
# [20] = molecular target: Neu5Gc(a2-3)Gal(b1-4)GlcNAc(b1-3)Gal(b1-4)GlcNAc(b1-2)Man(a1-3)[Neu5Gc(a2-3)Gal(b1-4)GlcNAc(b1-3)Gal(b1-4)GlcNAc(b1-2)Man(a1-6)]Man(b1-4)GlcNAc(b1-4)GlcNAc
# In short: as §1
# [21] = molecular target: Neu5Gc(a2-3)Gal(b1-4)[Fuc(a1-3)]GlcNAc
# In short: as §1
# [22] = molecular target: Neu5Gc(a2-6)Gal(b1-4)GlcNAc
# In short: as §1
# Neu5Gc(a2-6)GalNAc = molecular target: Neu5Gc(a2-6)GalNAc
# In short: as §1
# [23] = molecular target: Neu5Gc(a2-8)Neu5Ac(a2-3)Gal(b1-4)GlcNAc
# In short: as §1
# [24] = molecular target: Neu5Gc(a2-8)Neu5Gc(a2-3)Gal(b1-4)GlcNAc
# In short: as §1
# [25] = molecular target: Neu5Gc(a2-8)Neu5Gc(a2-3)Gal(b1-4)GlcNAc(b1-3)Gal(b1-4)GlcNAc
# In short: as §1
# [26] = molecular target: Neu5Gc(a2-8)Neu5Gc(a2-6)Gal(b1-4)GlcNAc
# In short: as §1
# [27] = molecular target: Neu5Gc(b2-6)Gal(b1-4)GlcNAc
# In short: as §1
binder,measurement,setting,value
B1,glycan array binding signal (z-score),Neu5Ac(a2-8)Neu5Ac,0.669
same,glycan array binding signal (z-score),[1],-0.012
same,glycan array binding signal (z-score),[2],0.441
same,glycan array binding signal (z-score),[3],-1.14
same,glycan array binding signal (z-score),[4],0.986
same,glycan array binding signal (z-score),[5],0.433
same,glycan array binding signal (z-score),[6],-0.39
same,glycan array binding signal (z-score),[7],-0.263
same,glycan array binding signal (z-score),[8],1.11
same,glycan array binding signal (z-score),[9],-0.348
same,glycan array binding signal (z-score),[10],1.67
same,glycan array binding signal (z-score),[11],-0.825
same,glycan array binding signal (z-score),[12],-0.892
same,glycan array binding signal (z-score),[13],1.42
same,glycan array binding signal (z-score),Neu5Ac(b2-6)GalNAc,-0.312
same,glycan array binding signal (z-score),[14],1.43
same,glycan array binding signal (z-score),[15],0.182
same,glycan array binding signal (z-score),[16],0.072
same,glycan array binding signal (z-score),[17],1.12
same,glycan array binding signal (z-score),[18],-1.07
same,glycan array binding signal (z-score),Neu5Gc(a2-3)Gal(b1-4)Glc,-0.572
same,glycan array binding signal (z-score),[19],0.081
same,glycan array binding signal (z-score),[20],2.02
same,glycan array binding signal (z-score),[21],-0.713
same,glycan array binding signal (z-score),[22],-0.708
same,glycan array binding signal (z-score),Neu5Gc(a2-6)GalNAc,0.665
same,glycan array binding signal (z-score),[23],-1.36
same,glycan array binding signal (z-score),[24],-0.011
same,glycan array binding signal (z-score),[25],-0.321
same,glycan array binding signal (z-score),[26],1.03
same,glycan array binding signal (z-score),[27],-0.599

# Copied from the entries so far for reference:
binder,measurement,setting,value
B1,glycan array binding signal (z-score),[12],-0.892
same,glycan array binding signal (z-score),[13],1.42
